The text below walks through data of the supplement of paper PMC11006884.

What follows is the remainder of the data, with few or none of the targets with a hit. The data scatter; read single values as rough. Only a part is listed here, and it is no random draw.

Compound in this assay: COC(=O)/C=C/c1ccccc1 [methyl cinnamate]
Put plainly: log2 ratio of iodoacetamide-alkyne labeling of the cysteine site, DMSO over compound (competition); higher = stronger covalent engagement of the cysteine by the compound, active = 1 or more. The note with it: 500 µM; treatment time 1 h; system: HEK293T cell lysate. In a few lines: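 Electrophile (500 µM) or vehicle was added to HEK293T lysate (2 mg/mL) for 1 h at ambient temperature before iodoacetamide alkyne labelling (1 h) and click coupling to sCIP-TMT reagents. After pooling, overnight trypsin digestion at 37 °C, streptavidin enrichment and acid elution, peptides were measured by Orbitrap Eclipse LC-MS/MS with FAIMS and quantified in FragPipe. Each cysteine's log2 competition ratio compares mean control-channel with mean compound-channel reporter intensity, control over compound. Data came from duplicate channels across three replicates, excluding cysteines quantified in only one replicate.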
For FNBP1 C609 (UniProt Q96RU3), the “log2 ratio of iodoacetamide-alkyne labeling” value (“log2 ratio” below) was inactive: 0.0449.
The same measure for WDFY2 C290 (UniProt Q96P53): inactive: -0.0588.
INTS4 C109 (UniProt Q96HW7): the “log2 ratio” value was inactive: 0.127.
The same measure for PSMB7 C74 (UniProt Q99436): inactive: 0.139; for PLEKHF1 C21 (UniProt Q96S99): inactive: 0.0349; for VPS39 C681 (UniProt Q96JC1): inactive: -0.18.
The same measure for ELAC2 C51 (UniProt Q9BQ52): inactive: -0.0525.
For the target ARAP1 C900 (UniProt Q96P48), the “log2 ratio” value is inactive: 0.203.
Turning to SRPK1 C455 (UniProt Q96SB4), the “log2 ratio” value is inactive: 0.152.
With MCCC1 C509 (UniProt Q96RQ3), the “log2 ratio” value is inactive: -0.102.
The same measure for DOCK6 C1853 (UniProt Q96HP0): inactive: 0.165; for STRBP C195 (UniProt Q96SI9): inactive: 0.109; for ZNF512 C324 (UniProt Q96ME7): inactive: -0.00499.
Consider DNAJC7 C317 (UniProt Q99615), for which the “log2 ratio” value was inactive: -0.0858.
The same measure for RNF5 C27 (UniProt Q99942): inactive: 0.0227.
As to RBM14 C108 (UniProt Q96PK6), the “log2 ratio” value is inactive: 0.0314.
Regarding ZNF48 C288 (UniProt Q96MX3), the “log2 ratio” value was inactive: 0.266.
For UniProt Q99683_C928, the “log2 ratio” value is inactive: 0.297.
For WDR24 C587 (UniProt Q96S15) the value was inactive: -0.061; for SH3GL1 C277 (UniProt Q99961), inactive: 0.21.
For HSD17B10 C58 (UniProt Q99714) the value was inactive: 0.149; for RPRD1A C100 (UniProt Q96P16), inactive: 0.0914; for NCAPG C202 (UniProt Q9BPX3), inactive: 0.0262.
As for FUBP3 C366 (UniProt Q96I24), the “log2 ratio” value is inactive: 0.106.
As to ZNF830 C314 (UniProt Q96NB3), the “log2 ratio” value is inactive: -0.062.
For the target SPAG5 C822 (UniProt Q96R06), the “log2 ratio” value was inactive: -0.011.
For SMG1 C1373 (UniProt Q96Q15) the value was inactive: 0.218; for UHRF1 C497 (UniProt Q96T88), inactive: 0.19.
The same measure for ARAP1 C774 (UniProt Q96P48): inactive: 0.769; for VAT1 C50 (UniProt Q99536): inactive: 0.105.
The same measure for UniProt Q96JM3_C787: inactive: -0.00144; for FBXL18 C423 (UniProt Q96ME1): inactive: 0.0962; for NSD1 C1312 (UniProt Q96L73): inactive: 0.257.
On to FUBP3 C460 (UniProt Q96I24), for which the “log2 ratio” value was inactive: 0.228.
For the target PARK7 C106 (UniProt Q99497), the “log2 ratio” value is inactive: 0.181.
For GRWD1 C299 (UniProt Q9BQ67) the value was active: 1.02.
In the case of ADO C239 (UniProt Q96SZ5), the “log2 ratio” value is inactive: 0.206.
